This is an account of results in doi:10.1101/2022.06.03.494746.

These are yes or no findings as the source states them, for the method shown. In cells and extracts the contact can be indirect. A yes stands for co-enrichment or nearness to the bait. Other partners may have been found. A no says only that the protein was not detected with the bait.

The target in assay [1] is DCP1-TurboID-6xHis-3xFLAG (Arabidopsis). Put plainly: affinity purification with mass spectrometry.
For assay [2] the target is unchanged. Put plainly: proximity labelling.

B1: ARC5 (protein, UniProt Q84N64 1-777)
chain: MAEVSAKSVTVEEMAEEDDAAIEERWSLYEAYNELHALAQELETPFEAPAVLVVGQQTDGKSALVEALMGFQFNHVGGGTKTRRPITLHMKYDPQCQFPLCHLGSDDDPSVSLPKSLSQIQAYIEAENMRLEQEPCSPFSAKEIIVKVQYKYCPNLTIIDTPGLIAPAPGLKNRALQVQARAVEALVRAKMQHKEFIILCLEDSSDWSIATTRRIVMQVDPELSRTIVVSTKLDTKIPQFSCSSDVEVFLSPPASALDSSLLGDSPFFTSVPSGRVGYGQDSVYKSNDEFKQAVSLREMEDIASLEKKLGRLLTKQEKSRIGISKLRLFLEELLWKRYKESVPLIIPLLGKEYRSTVRKLDTVSKELSSLDEAKLKERGRTFHDLFLTKLSLLLKGTVVAPPDKFGETLQDERTQGGAFVGTDGLQFSHKLIPNAGMRLYGGAQYHRAMAEFRFLVGAIKCPPITREEIVNACGVEDIHDGTNYSRTACVIAVAKARETFEPFLHQLGARLLHILKRLLPISVYLLQKEGEYLSGHEVFLKRVASAFNSFVESTEKSCRDKCMEDLASTTRYVTWSLHNKNRAGLRQFLDSFGGTEHNTTSGNAIGFSLPQDALGGTTDTKSRSDVKLSHLASNIDSGSSIQTTEMRLADLLDSTLWNRKLAPSSERIVYALVQQIFQGIREYFLASAELKFNCFLLMPIVDKLPALLREELENAFEDDLDSIFDITNLRQSLDQKKRSTEIELRRIKRIKEKFRVMNEKLNSHEFAQNLKAPSVQH
Regarding B1, the binding result in assay [1] and in assay [2] was “binds” throughout.

B2: PIN7 (protein, UniProt Q940Y5 1-619)
chain: MITWHDLYTVLTAVIPLYVAMILAYGSVRWWKIFSPDQCSGINRFVAIFAVPLLSFHFISSNNPYAMNLRFIAADTLQKLIMLTLLIIWANFTRSGSLEWSITIFSLSTLPNTLVMGIPLLIAMYGEYSGSLMVQIVVLQCIIWYTLLLFLFEYRGAKILIMEQFPETGASIVSFKVESDVVSLDGHDFLETDAQIGDDGKLHVTVRKSNASRRSFYGGGGTNMTPRPSNLTGAEIYSLNTTPRGSNFNHSDFYSMMGFPGGRLSNFGPADMYSVQSSRGPTPRPSNFEESCAMASSPRFGYYPGGAPGSYPAPNPEFSTGNKTGSKAPKENHHHVGKSNSNDAKELHMFVWGSNGSPVSDRAGLQVDNGANEQVGKSDQGGAKEIRMLISDHTQNGENKAGPMNGDYGGEEESERVKEVPNGLHKLRCNSTAELNPKEAIETGETVPVKHMPPASVMTRLILIMVWRKLIRNPNTYSSLIGLIWALVAFRWDVAMPKIIQQSISILSDAGLGMAMFSLGLFMALQPKLIACGNSTATFAMAVRFFTGPAVMAVAAMAIGLRGDLLRVAIVQAALPQGIVPFVFAKEYNVHPAILSTGVIFGMLIALPITLVYYILLGL
On to B2, for which the binding entry in assay [1] and in assay [2] was “no binding” throughout.

B3: RSW9 (protein, UniProt P42697 1-610)
chain: MENLISLVNKIQRACTALGDHGDSSALPTLWDSLPAIAVVGGQSSGKSSVLESIVGKDFLPRGSGIVTRRPLVLQLQKIDDGTREYAEFLHLPRKKFTDFAAVRKEIQDETDRETGRSKAISSVPIHLSIYSPNVVNLTLIDLPGLTKVAVDGQSDSIVKDIENMVRSYIEKPNCIILAISPANQDLATSDAIKISREVDPSGDRTFGVLTKIDLMDKGTDAVEILEGRSFKLKYPWVGVVNRSQADINKNVDMIAARKREREYFSNTTEYRHLANKMGSEHLAKMLSKHLERVIKSRIPGIQSLINKTVLELETELSRLGKPIAADAGGKLYSIMEICRLFDQIFKEHLDGVRAGGEKVYNVFDNQLPAALKRLQFDKQLAMDNIRKLVTEADGYQPHLIAPEQGYRRLIESSIVSIRGPAEASVDTVHAILKDLVHKSVNETVELKQYPALRVEVTNAAIESLDKMREGSKKATLQLVDMECSYLTVDFFRKLPQDVEKGGNPTHSIFDRYNDSYLRRIGSNVLSYVNMVCAGLRNSIPKSIVYCQVREAKRSLLDHFFAELGTMDMKRLSSLLNEDPAIMERRSAISKRLELYRAAQSEIDAVAWSK
As to B3, the binding result in assay [1] and in assay [2] was “binds” in each case.

B4: RNA-BINDING PROTEIN 47B (protein, UniProt Q0WW84 1-435)
chain: MQTTNGSDSTLATSGATPPNQQTPPPPQQWQQQQQQQQQWMAAMQYPPAAAMMMMQQQQMLMYPHQYVPYNQGPYQQHHPQLHQYGSYQQHQHQQHKAIDRGSGDDVKTLWVGDLLHWMDETYLHSCFSHTGEVSSVKVIRNKLTSQSEGYGFVEFLSRAAAEEVLQNYSGSVMPNSDQPFRINWASFSTGEKRAVENGPDLSVFVGDLSPDVTDVLLHETFSDRYPSVKSAKVVIDSNTGRSKGYGFVRFGDENERSRALTEMNGAYCSNRQMRVGIATPKRAIANQQQHSSQAVILAGGHGSNGSMGYGSQSDGESTNATIFVGGIDPDVIDEDLRQPFSQFGEVVSVKIPVGKGCGFVQFADRKSAEDAIESLNGTVIGKNTVRLSWGRSPNKQWRGDSGQQWNGGYSRGHGYNNGGGYANHHDSNNYHGEN
Turning to B4, the binding result in assay [1] and in assay [2] was “no binding” throughout.

B5: Ras-related protein Rab-A5c (protein, UniProt P28187 1-214)
chain: MSDDDERGEEYLFKIVIIGDSAVGKSNLLTRYARNEFNPNSKATIGVEFQTQSMLIDGKEVKAQIWDTAGQERFRAVTSAYYRGAVGALVVYDITRSSTFENVGRWLDELNTHSDTTVAKMLIGNKCDLESIRAVSVEEGKSLAESEGLFFMETSALDSTNVKTAFEMVIREIYSNISRKQLNSDSYKEELTVNRVSLVKNENEGTKTFSCCSR
For the molecule B5, the binding entry in assay [1] and in assay [2] was “no binding” throughout.
